Laboratory results: PubChem BioAssay AID1347076 (National Center for Advancing Translational Sciences (NCATS), 2019)
The campaign covered roughly 400,000 compounds. About 13,000 (3.2%) were called active. Inconclusive results, whose numbers are uncertain, are shown with a selection of clear calls. Calls come from the whole dose curve; as a rule, active = well fitted cell-killing curve with a large enough effect; inconclusive = small, poorly fitted or top-dose-only effect, or effect the other way; inactive = flat fitted curve, though single readings scatter. Where the call is inconclusive, the potency comes from a doubtful curve fit.

Assay: qHTS assay for MDR1-selective chemotherapeutics: Primary screen using the drug-selected MDR subline cells KB-V1; note: nearly all actives have a fitted effect of over 60% in size
Details: KB-V1 MDR cells viability, CellTiter-Glo, 72 h; activity change, negative = cytotoxicity: at 46.1 µM (top of the series)
How it was run: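 Cytotoxicity via CellTiter-Glo luminescence after 72 h compound exposure at 37 degrees C. Cells: drug-selected KB-V1 line, DMEM phenol-red free plus 10% FBS. Compounds tested at multiple concentrations; normalized data fitted to concentration-effect curves.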
% is set by controls: 0 for no effect and ±100 for the full control effect; potency is the fitted concentration of half-maximal effect.

Row | Structure (SMILES) | Potency | activity change, negative = cytotoxicity
1 | Cc1ccc2nsnc2c1S(=O)(=O)N(Cc1ccco1)Cc1cc2ccc(C)c(C)c2[nH]c1=O | inconclusive: 0.411 µM [cytotoxic, full curve, poor fit] | –
2 | COc1ccc(CNc2cc(C)nc3ccc(OC)cc23)cc1 | inconclusive: 16.4 µM [cytotoxic, partial curve] | –
3 | COc1ccc(CNC(=O)c2ccc3c(c2)N(Cc2ccc(C)cc2)CCS3)cc1 | – | inactive: 0%
4 | CC(C)[C@H](NC(=O)c1ccco1)C(=O)OCC(=O)N(C)c1ccccc1 | inconclusive: 16.4 µM [cytotoxic, partial curve, poor fit] | –
5 | Cc1csc(-c2cc(C(=O)NCc3ccc(F)cc3)n[nH]2)c1 | – | inactive: -0.364%
6 | CCc1ccccc1NC(=O)Cn1c(=O)n(-c2ccc(CC(=O)NCC3CCCO3)cc2)c(=O)c2ccccc21 (stereo not given) | inconclusive: 29.1 µM [rising, single point] | –
7 | CC1Sc2ccc(S(=O)(=O)CCC(=O)Nc3ccccn3)cc2NC1=O (stereo not given) | inconclusive: 29.1 µM [rising, single point] | –
8 | Nc1c(C(=O)Nc2ccc(S(=O)(=O)N3CCCC3)cc2)sc2nc3ccc(OC(F)(F)F)cc3cc12 | inconclusive: 32.6 µM [cytotoxic, single point] | –
9 | CCOC(=O)C1=C(C)N=c2s/c(=C\c3cccc(OCC(=O)O)c3)c(=O)n2C1c1ccccc1 (stereo not given) | inconclusive: 18.4 µM [rising, single point] | –
10 | Cc1cccc(NC(=O)COC(=O)c2cccc3c2C(=O)c2ccccc2C3=O)c1C | inconclusive: 11.6 µM [cytotoxic, partial curve] | –
11 | O=C(CSc1nc(-c2ccccc2)c(-c2ccccc2)o1)Nc1nnc(-c2ccccc2)s1 | active: 7.31 µM | –
12 | CC1Sc2ccc(C(=O)N(CCc3ccccc3)Cc3ccccc3)cc2NC1=O (stereo not given) | inconclusive: 23.1 µM [cytotoxic, partial curve, poor fit] | –
13 | O=C(O)CSc1c2c(nc3cc(C(=O)Nc4cccc(C(F)(F)F)c4)ccc13)CCC2 | – | inactive: 24.1%
14 | CCS(=O)(=O)c1ccc2oc(Nc3ccccc3C)nc2c1 | inconclusive: 20.6 µM [cytotoxic, single point] | –
15 | CC(C)(C)NC(=S)NNC(=O)[C@H]1C[C@@H]1c1ccccc1 | – | inactive: -0.093%
16 | O=c1cc(C(F)(F)F)[nH]c(=S)n1-c1ccccc1 | inconclusive: 4.61 µM [rising, partial curve, poor fit] | –
17 | Cc1ccccc1-n1c(SCC(=O)NCC2CCCO2)nnc1-c1ccncc1 (stereo not given) | – | inactive: 11.3%
18 | O=C(NCc1ccco1)C12CC3CC(C1)CC(C(=O)NCc1ccco1)(C3)C2 | active: 20.6 µM | –
19 | CCCn1nnnc1NC(=O)c1cc(Cl)ccc1Cl | – | inactive: -5.8%
20 | CCN(CC)C(=O)c1cnn(-c2ccccc2)c1NC(=O)c1ccco1 | inconclusive: 10.3 µM [cytotoxic, partial curve] | –
21 | CCOc1ccccc1CN1CCN(Cc2ccon2)CC1CCO (stereo not given) | – | inactive: -8.72%
22 | O=C(Cc1ccc(F)cc1)NCCc1cnc[nH]1 | inconclusive: 29.1 µM [rising, single point] | –
23 | Cc1ccc(NCc2nnc(SCC(=O)N3c4ccccc4Sc4ccccc43)o2)c(C)c1 | active: 6.51 µM | –
24 | Cc1cc2ncn(-c3ncnc4sc5c(c34)CCC(C)C5)c2cc1C (stereo not given) | active: 13 µM | –

Filtered by structure, the compounds so far containing a COOH group.
Row | Structure (SMILES) | Potency | activity change, negative = cytotoxicity
9 | CCOC(=O)C1=C(C)N=c2s/c(=C\c3cccc(OCC(=O)O)c3)c(=O)n2C1c1ccccc1 (stereo not given) | inconclusive: 18.4 µM [rising, single point] | –
13 | O=C(O)CSc1c2c(nc3cc(C(=O)Nc4cccc(C(F)(F)F)c4)ccc13)CCC2 | – | inactive: 24.1%

Further compounds follow:

Row | Structure (SMILES) | Potency | activity change, negative = cytotoxicity
25 | COCC1CCCN(Cc2cn(-c3ccccc3)nc2-c2ccc3c(c2)OCO3)C1 (stereo not given) | – | inactive: 0.333%
26 | CCOC(=O)c1cc(NC(=O)Nc2ccccc2OC)c(C)nc1C | inconclusive: 22.4 µM [cytotoxic, partial curve, poor fit] | –
27 | Cc1ccc(C2CN(C)C3(C(=O)Nc4ccccc43)C23COc2ccccc2C3=O)cc1 (stereo not given) | active: 20.6 µM | –
28 | Cc1ccccc1[C@H](NC1c2ccccc2C=Cc2ccccc21)P(=O)(c1ccccc1)c1ccccc1 | inconclusive: 29.1 µM [cytotoxic, single point] | –
29 | CCc1nc2ccc(C(=O)Nc3ccc(NC(C)=O)cc3)cn2c1N(C)CCCc1ccccc1 | – | inactive: 2.09%
30 | O=C(N/N=C/c1ccc([N+](=O)[O-])o1)c1cn(-c2ccccc2)nc1-c1ccccc1 | inconclusive: 8.2 µM [cytotoxic, partial curve] | –
31 | CCCc1nn2c(=O)cc(COC(=O)c3ccccc3NC(=O)c3cccs3)nc2s1 | – | inactive: -16.3%
32 | Cc1n[nH]c(C)c1CCCCOc1ccccc1[N+](=O)[O-] | – | inactive: -16.8%
33 | Cc1ccc(C)c(C(=O)COc2ncnc3ccccc23)c1 | inconclusive: 8.2 µM [cytotoxic, partial curve] | –
34 | Cc1cc(C)cc(Nc2nc(-c3ccc(S(=O)(=O)N4CCCC4)cc3)cs2)c1 | inconclusive: 2.59 µM [cytotoxic, full curve, poor fit] | –
35 | CCOC(=O)CN1NC2(CCCC(C)C2)NC1=S (stereo not given) | inconclusive: 32.6 µM [cytotoxic, single point] | –
36 | CN(c1ccc(C(=O)Nc2cccnc2)cc1)S(=O)(=O)c1ccc(Cl)cc1 | inconclusive: 8.2 µM [cytotoxic, partial curve] | –
37 | COc1ccccc1C(=O)Nc1nnc(-c2ccccc2)s1 | inconclusive: 29.1 µM [cytotoxic, single point] | –
38 | Cc1cnc(C(=O)OCC(=O)N2CC(C)CC(C)C2)cn1 (stereo not given) | inconclusive: 20.6 µM [rising, single point] | –
39 | COc1ccc(-c2cnc3nc[nH]c(=O)c3n2)cc1 | inconclusive: 29.1 µM [rising, single point] | –
40 | COc1cc2c(cc1OC)C(c1cc(-c3cc(Cl)ccc3Cl)oc1C)=NCC2 | inconclusive: 29.1 µM [cytotoxic, single point] | –
41 | O=C(NCc1nc2ccccc2[nH]1)C1=C[C@H](C2CCCCC2)C[C@H](OCc2ccc(CO)cc2)O1 | inconclusive: 20.6 µM [cytotoxic, single point] | –
42 | CCOC(=O)c1cccc(NC(=O)c2cc3c(-c4cccc(OC)c4)nn(C)c3s2)c1 | inconclusive: 0.651 µM [cytotoxic, full curve, poor fit] | –
43 | Cc1nc2c(c(C)c1CCC(=O)NCc1ccccc1)c(=O)n(C)c(=O)n2C | – | inactive: 18%
44 | CC1CCCC(NC(=O)c2cccc(S(=O)(=O)NCc3ccccc3)c2)C1C (stereo not given) | – | inactive: 12.8%
45 | CC(=O)c1cccc(NC(=O)c2ccc(N(C)S(C)(=O)=O)cc2)c1 | inconclusive: 20.6 µM [cytotoxic, single point] | –
46 | Cc1ccc(N(C(=O)c2snc(C(N)=O)c2N)C(C(=O)NCC2CCCO2)c2ccc(C)o2)c(C)c1 (stereo not given) | inconclusive: 8.2 µM [cytotoxic, partial curve, poor fit] | –
47 | CC(C)(C)OC(=O)NNC(=O)c1cccs1 | – | inactive: -0.996%
48 | COc1ccc(CNS(=O)(=O)CCNCCc2ccccc2)cc1 | – | inactive: -3.55%

Row | Structure (SMILES) | Potency | activity change, negative = cytotoxicity
49 | CC(C)C(=O)NC(c1ccc(Cl)cc1Cl)c1ccc2cccnc2c1O (stereo not given) | – | inactive: -5.93%
50 | O=c1oc2ccc3ccccc3c2cc1-c1nnc(-c2cccs2)o1 | – | inactive: -15.9%
51 | Cc1cccc(NC(=O)C2CCC(CNS(=O)(=O)c3csc(C(N)=O)c3)CC2)c1C (stereo not given) | inconclusive: 20.6 µM [rising, partial curve] | –
52 | Cc1ccc(S(=O)(=O)c2nc(S(C)(=O)=O)sc2N(C)Cc2ccccc2)cc1 | – | inactive: -14.2%
53 | CC1CCN(C(=O)CN(c2ccc3c(c2)OCCO3)S(=O)(=O)c2ccccc2)CC1 | – | inactive: -19%
54 | Cn1c(N)c(C(=O)COC(=O)C2(c3ccc(F)cc3)CCCC2)c(=O)n(C)c1=O | inconclusive: 18.4 µM [cytotoxic, single point] | –
55 | COc1ccc(S(=O)(=O)N2CCCCC2)cc1NC(=O)CSc1nccn1C | inconclusive: 20.6 µM [cytotoxic, single point] | –
56 | Cc1c(C)n(Cc2ccccc2)c2ccc(C(=O)OCCCN(C)C)cc12 | inconclusive: 23.1 µM [cytotoxic, single point] | –
57 | CC(C)(C)NC(=O)CSc1nc(N)cc(=O)[nH]1 | – | inactive: 25.7%
58 | Cc1nn2c(=O)cc(COc3ccc(/C=C(\C#N)C(=O)Nc4ccc(F)cc4)cc3)nc2s1 | – | inactive: 5.79%
59 | O=C(Nc1ccccc1)Nc1ccc(F)c([N+](=O)[O-])c1 | inconclusive: 25.9 µM [cytotoxic, single point] | –
60 | CCS(=O)(=O)N1CCN(S(=O)(=O)c2ccc(S(=O)(=O)NC3CC3)cc2)CC1 | inconclusive: 25.9 µM [rising, single point] | –
61 | N#Cc1c(N)n(-c2cccc(Cl)c2)c2nc3ccccc3nc12 | – | inactive: 6.35%
62 | O=C(CSc1nnc(CNC(=O)c2ccco2)o1)Nc1ccccc1F | inconclusive: 18.4 µM [rising, single point] | –
63 | C#CCOCCOCCOCCNc1nc(N2CCN(C(=O)[C@H](C)n3cc(CCC(=O)O)nn3)CC2)nc(N2CCN(C(=O)[C@H](CCCCN)n3cc(CCCC)nn3)CC2)n1 | – | inactive: 1.76%
64 | CCOC(=O)N1CCN(C(=O)c2cc(OCC)c(OCC)c(OCC)c2)CC1 | inconclusive: 29.1 µM [cytotoxic, single point] | –
65 | CS(=O)(=O)c1ccc(C(=O)OCc2nnc(-c3ccc(Cl)cc3)o2)cc1[N+](=O)[O-] | – | inactive: -19.8%
66 | CCOC(=O)COc1ccccc1C1C(C(=O)OC)=C(C)NC2=C1C(=O)c1ccccc12 (stereo not given) | inconclusive: 9.2 µM [cytotoxic, partial curve, poor fit] | –
67 | COc1cc(C(CC(=O)Nc2ccccn2)N2Cc3ccccc3C2=O)cc(OC)c1OC (stereo not given) | – | inactive: -0.268%
68 | O=C(CCN1C(=O)/C(=C/c2ccc(F)cc2)SC1=S)NCCc1ccc(O)cc1 | – | inactive: 26.1%
69 | CN1C(=O)C2(C(C#N)=C(N)N(c3cc(Cl)cc(Cl)c3)C3=C2C(=O)CCC3)c2ccccc21 (stereo not given) | inconclusive: 25.9 µM [rising, single point] | –
70 | CC(=O)Nc1ccc(C23CC4CC(CC(C4)C2)C3)cc1 | – | inactive: -15.4%

Molecules from the list above with a cyano group:
Row | Structure (SMILES) | Potency | activity change, negative = cytotoxicity
58 | Cc1nn2c(=O)cc(COc3ccc(/C=C(\C#N)C(=O)Nc4ccc(F)cc4)cc3)nc2s1 | – | inactive: 5.79%
61 | N#Cc1c(N)n(-c2cccc(Cl)c2)c2nc3ccccc3nc12 | – | inactive: 6.35%
69 | CN1C(=O)C2(C(C#N)=C(N)N(c3cc(Cl)cc(Cl)c3)C3=C2C(=O)CCC3)c2ccccc21 (stereo not given) | inconclusive: 25.9 µM [rising, single point] | –
